This experiment in a line: qHTS Assay for Modulators of Lamin A Splicing. Conditions: HeLa LMNA splicing GFP/RFP minigene ratio, 48 h. The gist of the method:
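S3 HeLa cells stably expressing lamin A-EGFP splicing minigene plus DsRed2, 600 cells/well, 48 h compound exposure at 37C. Laser-scanning cytometry; analysed as GFP (500-530 nm)/RFP (575-640 nm) total intensity ratio; 0.5% DMSO vehicle.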

The mark [1] stands for this setting: measured here: RFP viability control channel.
Where [2] appears, read: measured here: GFP splicing reporter channel.

These results are taken from PubChem BioAssay AID1487 (National Center for Advancing Translational Sciences (NCATS), 2009).

The other results are listed elsewhere or left out. These are further read-outs of the screen, such as a control signal, another cell line or another target. No call is given for them. Most of these compounds were active or inconclusive in the main read-out, so they are no random draw. The note in brackets gives the kind of curve behind each potency; many fits are weak.

For `Cc1ccc(-n2nc(C(=O)Nc3ccc(Br)cc3C)c(=O)n(C)c2=O)cc1`, the half-maximal activity concentration (AC50) under setting [1] was 0.00501 µM [falling, full curve].

Turning to `CN(Cc1ccco1)c1nc(-c2ccccc2Cl)nc2ccccc12`, the AC50 runs as follows: under setting [2], 22.4 µM [rising, single point]; under setting [1], 20 µM [rising, single point].

Regarding `O=C(O)CN1C(c2ccccc2)=Nc2ccc(Br)cc2C1c1ccccc1` (configuration not stated), under setting [2], the AC50 is 8.91 µM [falling, partial curve].

For `CCOC(=O)c1sc(NC(=O)CSc2nncs2)c(C(=O)OCC)c1C`, under setting [2], the AC50 was 11.2 µM [rising, partial curve].

For `COc1ccccc1N1CCN(S(=O)(=O)CCNC(=O)C2CC(=O)N(c3ccccc3)C2)CC1` (configuration not stated), under setting [2], the half-maximal activity concentration (AC50) is 1 µM [falling, full curve, poor fit].

As for `COc1cc(N2CCCC2)c(OC)cc1/C=C(/C#N)c1cccc(Br)c1`, under setting [1], the AC50 is 31.6 µM [rising, single point].

As to `CC(=O)C1=C(c2ccc(Cl)c(Cl)c2)N(C(C)=O)n2cnnc2S1`, the AC50 under setting [1] is 17.8 µM [rising, single point].

With `CC(NC(=O)c1cc2ccccc2o1)c1ccccc1` (configuration not stated), the AC50 is, setting by setting: under setting [2], 0.0178 µM [falling, full curve, poor fit]; under setting [1], 0.02 µM [falling, full curve, poor fit].

With `COc1cc(NS(=O)(=O)c2ccc(F)cc2)c(OC)cc1NC(C)=O`, under setting [2], the concentration at half-maximal activity (AC50) is 5.62 µM [rising, full curve, poor fit].

As to `CC(=O)S[C@H]1CC2=CC(=O)CC[C@@]2(C)[C@H]2CC[C@@]3(C)[C@H](CC[C@]34CCC(=O)O4)[C@@H]12`, the AC50 under setting [2] was 5.62 µM [falling, partial curve].

For the molecule `Cc1cccc(NC(=O)CSc2nc3ccccc3c3nc(CCc4c(C)n[nH]c4C)nn23)c1`, the AC50 is 10 µM [falling, partial curve, poor fit] under setting [2] and 12.6 µM [falling, partial curve] under setting [1].

Regarding `CC(C)CC(=O)N1CCN(S(=O)(=O)c2ccc3ccccc3c2)CC1`, the concentration at half-maximal activity (AC50) is 5.01 µM [rising, partial curve, poor fit] under setting [2] and 17.8 µM [rising, single point] under setting [1].

With `O=C(NNC(=O)c1ccccc1-n1cccc1)c1ccc(F)cc1`, under setting [2], the AC50 was 0.00447 µM [rising, full curve, poor fit].

For the molecule `COc1ccccc1-c1cc(C(=O)NCCc2ccccc2)no1`, the AC50 under setting [1] is 15.8 µM [rising, single point].

Turning to `Cc1cccc(-c2nsc(SCC(=O)NCc3ccco3)n2)c1`, under setting [1], the concentration at half-maximal activity (AC50) was 10 µM [rising, partial curve].

For `O=S(=O)(Nc1cccc(F)c1)c1ccc2[nH]c3c(c2c1)CCCCC3`, the half-maximal activity concentration (AC50) under setting [2] is 35.5 µM [falling, single point] and the AC50 under setting [1] was 35.5 µM [falling, partial curve].

As for `COc1cccc(C(=O)Oc2c(CN3CCOCC3)cc(Cl)c3cccnc23)c1`, the AC50 under setting [1] is 15.8 µM [rising, single point].

Turning to `COc1ccc(S(=O)(=O)Nc2cccnc2)c(Cl)c1Cl`, under setting [1], the AC50 is 14.1 µM [falling, partial curve, poor fit].

On to `CCSc1cc(N2CCCC2)nc(-c2cccc(C)c2)n1`, for which the concentration at half-maximal activity (AC50) reads like this: under setting [2], 1.41 µM [rising, partial curve]; under setting [1], 0.447 µM [rising, full curve].

Regarding `CCOC(=O)c1ccc(OCC(=O)c2ccc(O)cc2O)cc1`, under setting [1], the half-maximal activity concentration (AC50) was 35.5 µM [rising, single point].

With `Cc1cccc(NC(=O)C(C)n2cc([N+](=O)[O-])cn2)n1` (configuration not stated), the half-maximal activity concentration (AC50) under setting [2] was 0.00316 µM [rising, full curve, poor fit].

Regarding `CC(C)(C)OC(=O)N1CCC(c2c(C(=O)N3CCC(c4ccccc4)C3)cnn2-c2ccc(Cl)cc2)CC1` (configuration not stated), the AC50 under setting [1] was 31.6 µM [rising, single point].

For the molecule `O=C(c1ccc2c(c1)OCO2)C1CCCN(Cc2ccc3cccc(F)c3n2)C1` (configuration not stated), the AC50 under setting [1] is 17.8 µM [falling, partial curve, poor fit].

On to `COc1ccc(C2C3=C(Nc4ncnn42)c2ccccc2CC3)cc1OC` (configuration not stated), for which the AC50 under setting [1] is 14.1 µM [rising, single point].

As to `CC(C)COc1ccc(C(=O)N(Cc2ccco2)C2CCS(=O)(=O)C2)cc1` (configuration not stated), the AC50 is 11.2 µM [rising, single point] under setting [2] and 15.8 µM [rising, single point] under setting [1].

Regarding `c1nc(NCCN2CCOCC2)c2sc3nc(N4CCOCC4)c4c(c3c2n1)CCC4`, under setting [1], the half-maximal activity concentration (AC50) is 11.2 µM [rising, partial curve, poor fit].

`CC1CCC(NC(=O)Cn2c3c(c(-c4ccccc4Cl)cc2=O)CCC3)CC1` (configuration not stated): the AC50 under setting [1] was 35.5 µM [rising, single point].

With `O=C(c1cc(-c2cccc(O)c2)on1)N1CCN(C(c2ccccc2)c2ccccc2)CC1`, the AC50 under setting [1] was 3.16 µM [falling, partial curve].

In the case of `CCOC(=O)Nc1cc(=O)c2ccccc2o1`, the half-maximal activity concentration (AC50) runs as follows: under setting [2], 6.31 µM [falling, single point]; under setting [1], 5.62 µM [falling, single point].

Take `C=CCc1ccc(OCCCCOc2ccc(C(=O)O)cc2)c(OC)c1`: under setting [2], the AC50 was 0.282 µM [rising, partial curve, poor fit].

As for `Cc1cccc(CCNC(=O)c2ccc3c(c2)nc2n3CCCCC2)c1`, the AC50 under setting [2] was 0.708 µM [rising, full curve, poor fit].

Consider `CCOCCCNCc1cc(Br)ccc1OCc1ccccc1`, for which the concentration at half-maximal activity (AC50) under setting [1] was 14.1 µM [rising, single point].

Regarding `COc1ccc2nc(NC(=O)CSc3nnnn3C3CCCCC3)sc2c1`, the AC50 by setting is: under setting [2], 20 µM [rising, partial curve, poor fit]; under setting [1], 35.5 µM [rising, partial curve, poor fit].

Consider `CCOC(=O)/C(=C\c1ccc(Cl)cc1)c1nc2sc(C)c(C)c2c(=O)[nH]1`, for which the concentration at half-maximal activity (AC50) is 14.1 µM [falling, partial curve, poor fit] under setting [2] and 25.1 µM [falling, single point] under setting [1].

Consider `O=C(NC(NC(=S)Nc1ccc(Cl)cc1)C(Cl)(Cl)Cl)c1ccco1` (configuration not stated), for which the AC50 under setting [2] is 35.5 µM [rising, single point] and the AC50 under setting [1] was 25.1 µM [rising, single point].

In the case of `CCOC(=O)N1CCN(c2cc(NCCO)c([N+](=O)[O-])c3nonc23)CC1`, under setting [2], the AC50 was 0.891 µM [rising, full curve, poor fit].
